According to patent US6801859B1, “Methods of characterizing drug activities using consensus profiles” (Rosetta Inpharmatics LLC, priority 1998, dated 2004):
At least one compound was matched to its structure with a doubt left.

Tests used:
[1] = test system: calcineurin protein; assay: Transcript response profiles of S. cerevisiae to immunosuppressant drug perturbations, grouped into genesets; format: cell-based
[2] = test system: Tet promoter; conditions: yeast Tet system; cited from earlier work

Row | Compound | additional effect from other genesets ([1]; FK506 1 μg/ml, wild-type cells and strain missing CPH1 (Rows 28, 30)) | secondary effects from other genesets ([1]; FK506 50 μg/ml, wild-type, CPH1-missing and GCN4-missing strains (Rows 15, 18, 34)) | projected response amplitude of geneset no. 5 against threshold (FIG. 10) ([1]; threshold = two standard errors of the geneset response, rows 15, 18, 28-32, 34) | level giving maximal repression of promoter activity [2] [micrograms/ml]
1 | C=CC[C@@H]1/C=C(\C)C[C@H](C)C[C@H](OC)[C@H]2O[C@@](O)(C(=O)C(=O)N3CCCC[C@H]3C(=O)O[C@H](/C(C)=C/[C@@H]3CC[C@@H](O)[C@H](OC)C3)[C@H](C)[C@@H](O)CC1=O)[C@H](C)C[C@@H]2OC [FK506] | little additional effect from other genesets | appreciable secondary effects from other genesets | exceeds the threshold | 
2 | C[C@H]1c2cccc(O)c2C(=O)C2=C(O)[C@]3(O)C(=O)C(C(N)=O)=C(O)[C@@H](N(C)C)[C@@H]3[C@@H](O)[C@@H]21 [doxycycline] |  |  |  | 10
